Test results: PMC5996148
The list shows a part of the results. For some assays here: The exact form of the protein is not confirmed.

How the values were obtained:
Test in all cases: protein microarray (ProtoArray v5.0), streptavidin-Alexa Fluor 647
Settings in all cases: 3'-biotin; 20 mM Tris (pH 7.5), 5 mM MgCl2, 100 mM KCl, 0.1% Tween-20, A/T-rich and random oligonucleotide blockers; temperature not stated; high values mean tight binding
ACTN4 (human) = test system: ACTN4 (human)
ACTR6 (human) = test system: ACTR6 (human)
ACVRL1 (human) = test system: ACVRL1 (human)
ACY1 (human) = test system: ACY1 (human)
ACY3 (human) = test system: ACY3 (human)
ADAM33 (human) = test system: ADAM33 (human)
ADD1 (human) = test system: ADD1 (human)
ADH5 (human) = test system: ADH5 (human)
ADI1 (human) = test system: ADI1 (human)
ADPRHL1 (human) = test system: ADPRHL1 (human)
ADRB2 = ADRB2 (UniProt P07550)
ADRM1 (human) = test system: ADRM1 (human)
AFAP1L1 (human) = test system: AFAP1L1 (human)
AFG3L1 (human) = test system: AFG3L1 (human)
AGR2 (human) = test system: AGR2 (human)
AGT (human) = test system: AGT (human)
AGXT2L2 (human) = test system: AGXT2L2 (human)
AHCY (human) = test system: AHCY (human)
AHNAK (human) = test system: AHNAK (human)
AHNAK2 (human) = test system: AHNAK2 (human)

Sequence: GGGAGGCTGAGGCAGG [G4-1 biotinylated (PQS2)]
- binding signal (ACTN4 (human)): -0.316 z-score
- binding signal (ACTR6 (human)): -0.285 z-score
- binding signal (ACVRL1 (human)): -0.325 z-score
- binding signal (ACY1 (human)): -0.353 z-score
- binding signal (ACY3 (human)): -0.349 z-score
- binding signal (ADAM33 (human)): -0.267 z-score
- binding signal (ADD1 (human)): -0.343 z-score
- binding signal (ADH5 (human)): -0.33 z-score
- binding signal (ADI1 (human)): -0.368 z-score
- binding signal (ADPRHL1 (human)): -0.332 z-score
- binding signal (ADRB2): -0.333 z-score
- binding signal (ADRM1 (human)): -0.353 z-score
- binding signal (AFAP1L1 (human)): -0.336 z-score
- binding signal (AFG3L1 (human)): -0.348 z-score
- binding signal (AGR2 (human)): -0.264 z-score
- binding signal (AGT (human)): -0.298 z-score
- binding signal (AGXT2L2 (human)): -0.328 z-score
- binding signal (AHCY (human)): -0.339 z-score
- binding signal (AHNAK (human)): -0.301 z-score
- binding signal (AHNAK2 (human)): -0.334 z-score
